Assay: Kd and cooperativity indice of NLM peptides by Hill coefficient calculation
Assay type: binding
Text: The present inventors compared NLM-DR to the corresponding NLM peptide by measuring the respective cooperativity indices, which evidence an advantage of NLM-DR mutated peptide over the wild-type.
The calculation of the “cooperativity indice” by means of Hill coefficient is based on the following formula Boundmax×L^n/(KD^n+L^n)
Boundmax is the maximum concentration of the bound ligand,
L is the concentration of the free ligand,
n is the cooperativity indice and
KD, is the affinity constant of the ligand by the protein.
If these values were to be compared to those obtained from the curves without accounting for cooperativity, the affinity of NLM-DR peptide would be 75 times higher than the affinity of wild-type NLM peptide.

Substance: LKAQADIYKARFQAERHAREK [NLM-DR]
- cooperativity indice: 1.4

Substance: NLM: corresponding wild type NLM peptide covering the same 21 amino acid range as NLM-DR (LKAQADIYKADFQAERHAREK)
- cooperativity indice: 2.1

— patent US7700553B2, “Selective inhibition of NF-κB activation by peptides designed to disrupt nemo oligomerization” (priority 2003, dated 2010)
